Some results were stated once for a whole list of compounds, not compound by compound.
Assays:
Assay type in all cases: in vivo
Ctenocephalides felis = Ctenocephalides felis test (CTECFE), blood feeding; details: 100 ppm in cattle blood; adult unfed fleas, after 2 days
Method: BIOLOGICAL TEST EXAMPLE 7
Ctenocephalides felis—Test (CTECFE)
(§1) Solvent: Dimethyl Sulfoxide
To produce a suitable preparation of active compound, 10 mg of active compound are dissolved in 0.5 ml solvent, and the concentrate is diluted with cattle blood to the desired concentration. Approximately 20 adult unfed (Ctenocephalides felis) are placed in flea chambers. The blood chamber, sealed with parafilm on the bottom, are filled with cattle blood supplied with compound solution and placed on top of the flea chamber, so that the fleas are able to suck the blood. The blood chamber is heated to 37° C. whereas the flea chamber is kept at room temperature.
After 2 days mortality in % is determined. 100% means that all the fleas have been killed; 0% means that none of the fleas have been killed.

Boophilus microplus [1] = assay: Boophilus microplus test (injection); details: 20 μg/animal; injection into abdomen of adult engorged females, after 7 days
Lucilia cuprina = Lucilia cuprina (48 hrs) larval test; details: 100 ppm; 1st instar larvae, after 2 days
Method: BIOLOGICAL TEST EXAMPLE 8
Species: Lucilia cuprina 1st Instar Larvae (Age 24 Hrs)
as §1
10 mg active compound are dissolved in 0.5 ml dimethyl sulfoxide. Serial dilutions are made to obtain the desired rates. Approximately 20 Lucilia cuprina 1st instar larvae are transferred into a test tube containing 1 cm^3 of minced horse meat and 0.5 ml aqueous dilution of test compound.
After 2 days larval mortality in % is recorded. 100% efficacy=all larvae are killed, […].

Amblyomma hebraeum = details: 100 ppm; nymphs immersed one minute, after 42 days
Boophilus microplus [2] = assay: Boophilus microplus (dip); details: 100 ppm; adult engorged females immersed one minute, after 7 days
Method: BIOLOGICAL TEST EXAMPLE 5
Boophilus microplus (Dip)
as §1
To produce a suitable preparation of active compound, 10 mg of active compound are dissolved in 0.5 ml solvent, and the concentrate is diluted with water to the desired concentration. Eight to ten adult engorged female Boophilus microplus ticks are placed in perforated plastic beakers and immersed in aqueous compound solution for one minute. Ticks are transferred to a filter paper in a plastic tray. Egg deposition of fertile eggs is monitored after. After 7 days mortality in % is determined. 100% means that all the ticks have been killed; 0% means that none of the ticks have been killed.

Musca domestica = Musca domestica test; details: 100 ppm; adults, sugar/compound sponge, after 2 days
Method: BIOLOGICAL TEST EXAMPLE 9
as §1
To produce a suitable preparation of active compound, 10 mg of active compound are dissolved in 0.5 ml solvent, and the concentrate is diluted with water to the desired concentration. Prior to the assay, a piece of kitchen sponge is soaked with a mixture of sugar and compound solution and placed into a container. 10 adults (Musca domestica) are placed into the container and closed with a perforated lid.
After 2 days mortality in % is determined. 100% means that all the flies have been killed; 0% means that none of the flies have been killed.

| Structure (SMILES) | activity (mortality in %) (Ctenocephalides felis) [%] | activity (mortality in %; 100% means that all eggs are infertile) (Boophilus microplus [1]) [%] | activity (larval mortality in %) (Lucilia cuprina) [%] | activity (mortality in %) (Amblyomma hebraeum) [%] | activity (mortality in %) (Boophilus microplus [2]) [%] | activity (mortality in %) (Musca domestica) [%] |
| --- | --- | --- | --- | --- | --- | --- |
| CC(=O)NC(C)c1ccc(N2CCC(c3cc(Cl)cc(Cl)c3)(C(F)(F)F)C2)cc1 (racemic) [Compound 1] | 100 | 100 | 100 |  |  |  |
| CCC(=O)NC(C)c1ccc(N2CCC(c3cc(Cl)cc(Cl)c3)(C(F)(F)F)C2)cc1 (racemic) [Compound 2] |  | 100 | 100 | 100 | 100 | 80 |
| CC(NC(=O)C1CC1)c1ccc(N2CCC(c3cc(Cl)cc(Cl)c3)(C(F)(F)F)C2)cc1 (racemic) [Compound 3] | 100 | 100 | 100 |  | 100 |  |
| CCC(=O)NC(C)c1ccc(N2CCC(c3cc(Cl)cc(C(F)(F)F)c3)(C(F)(F)F)C2)cc1 (racemic) [Compound 4] | 100 | 100 | 100 | 100 | 100 | 100 |
| CC(NC(=O)C1CC1)c1ccc(N2CCC(c3cc(Cl)cc(C(F)(F)F)c3)(C(F)(F)F)C2)cc1 (racemic) [Compound 5] | 100 | 100 | 100 | 100 | 100 | 80 |
| CC(=O)NC(C)c1ccc(N2CCC(c3cc(Cl)c(Cl)c(Cl)c3)(C(F)(F)F)C2)cc1 (racemic) [Compound 6] | 100 | 100 | 100 |  | 100 |  |
| CCC(=O)NC(C)c1ccc(N2CCC(c3cc(Cl)c(Cl)c(Cl)c3)(C(F)(F)F)C2)cc1 (racemic) [Compound 7] | 100 | 100 | 100 | 100 | 100 | 80 |
| CC(NC(=O)C1CC1)c1ccc(N2CCC(c3cc(Cl)c(Cl)c(Cl)c3)(C(F)(F)F)C2)cc1 (racemic) [Compound 8] | 100 | 100 | 100 | 100 | 100 |  |
| CC(=O)NC(C)c1ccc(N2CCC(c3cc(C(F)(F)F)cc(C(F)(F)F)c3)(C(F)(F)F)C2)cc1 (racemic) [Compound 9] | 100 | 100 | 100 |  |  | 100 |
| CCC(=O)NC(C)c1ccc(N2CCC(c3cc(C(F)(F)F)cc(C(F)(F)F)c3)(C(F)(F)F)C2)cc1 (racemic) [Compound 10] | 100 | 100 | 100 |  |  |  |
| CC(NC(=O)C1CC1)c1ccc(N2CCC(c3cc(C(F)(F)F)cc(C(F)(F)F)c3)(C(F)(F)F)C2)cc1 (racemic) [Compound 11] | 100 | 100 | 100 | 100 | 100 | 100 |
| CC(NC(=O)CC1CC1)c1ccc(N2CCC(c3cc(Cl)c(Cl)c(Cl)c3)(C(F)(F)F)C2)cc1 (racemic) [Compound 12] |  | 100 | 100 |  | 100 |  |
| CC(NC(=O)CC1CC1)c1ccc(N2CCC(c3cc(C(F)(F)F)cc(C(F)(F)F)c3)(C(F)(F)F)C2)cc1 (racemic) [Compound 13] | 100 | 100 | 100 |  |  |  |
| COCCC(=O)NC(C)c1ccc(N2CCC(c3cc(Cl)c(Cl)c(Cl)c3)(C(F)(F)F)C2)cc1 (racemic) [Compound 14] |  | 100 | 100 |  | 100 |  |
| CC(=O)N[C@@H](C)c1ccc(N2CCC(c3cc(Cl)cc(Cl)c3)(C(F)(F)F)C2)cc1 (some centres unmarked) [Compound 1-b] | 100 | 100 | 100 |  | 100 | 80 |
| CCC(=O)N[C@@H](C)c1ccc(N2CCC(c3cc(Cl)cc(Cl)c3)(C(F)(F)F)C2)cc1 (some centres unmarked) [Compound 2-b] | 100 | 100 | 100 | 100 | 100 | 80 |
| C[C@H](NC(=O)C1CC1)c1ccc(N2CCC(c3cc(Cl)cc(Cl)c3)(C(F)(F)F)C2)cc1 (some centres unmarked) [Compound 3-b] | 100 | 100 | 100 | 100 | 100 | 100 |
| CCC(=O)N[C@@H](C)c1ccc(N2CCC(c3cc(Cl)cc(C(F)(F)F)c3)(C(F)(F)F)C2)cc1 (some centres unmarked) [Compound 4-b] | 100 | 100 | 100 | 100 | 100 | 100 |
| C[C@H](NC(=O)C1CC1)c1ccc(N2CCC(c3cc(Cl)cc(C(F)(F)F)c3)(C(F)(F)F)C2)cc1 (some centres unmarked) [Compound 5-b] | 100 | 100 | 100 |  | 100 | 80 |
| CC(=O)N[C@@H](C)c1ccc(N2CCC(c3cc(Cl)c(Cl)c(Cl)c3)(C(F)(F)F)C2)cc1 (some centres unmarked) [Compound 6-b] | 100 | 100 | 100 | 100 | 100 | 80 |
| CCC(=O)N[C@H](C)c1ccc(N2CCC(c3cc(Cl)c(Cl)c(Cl)c3)(C(F)(F)F)C2)cc1 (some centres unmarked) [Compound 7-a] |  | 100 | 100 |  | 100 |  |
| C[C@H](NC(=O)C1CC1)c1ccc(N2CCC(c3cc(Cl)c(Cl)c(Cl)c3)(C(F)(F)F)C2)cc1 (some centres unmarked) [Compound 8-b] |  | 100 | 100 | 100 | 100 | 100 |
| CC(=O)N[C@@H](C)c1ccc(N2CCC(c3cc(C(F)(F)F)cc(C(F)(F)F)c3)(C(F)(F)F)C2)cc1 (some centres unmarked) [Compound 9-b] | 100 | 100 | 100 |  |  |  |
| CCC(=O)N[C@H](C)c1ccc(N2CCC(c3cc(C(F)(F)F)cc(C(F)(F)F)c3)(C(F)(F)F)C2)cc1 (some centres unmarked) [Compound 10-a] |  | 100 | 100 |  |  |  |
| COCCC(=O)N[C@@H](C)c1ccc(N2CCC(c3cc(Cl)c(Cl)c(Cl)c3)(C(F)(F)F)C2)cc1 (some centres unmarked) [Compound 14-b] | 100 | 100 | 100 |  | 100 | 80 |
| COCCC(=O)N[C@@H](C)c1ccc(N2CCC(c3cc(C(F)(F)F)cc(C(F)(F)F)c3)(C(F)(F)F)C2)cc1 (some centres unmarked) [Compound 15-b] | 100 | 100 | 100 |  |  |  |

From patent publication US8536201B2, “Pesticidal arylpyrrolidines” (Bayer Intellectual Property GmbH, priority 2009, dated 2013)
